These are yes or no findings as the source states them, for the method shown. Binding seen in cells or lysates may run through a third protein. Binding can be weak; no strength is given.
Key:
[1] = target: Flag-tagged SDE2 (wild-type) (human) (UniProt Q6IQ49); assay: co-IP; HEK293T co-transfected with Myc-tagged ATG5 and Flag-tagged SDE2 (wild-type or Δ1); immunoprecipitation with anti-Flag, immunoblot with anti-Myc and anti-Flag
[2] = target: ATG5 (endogenous, KMS-11 cells) (human (endogenous in KMS-11)) (UniProt Q9H1Y0); assay: co-IP + cross-linking; endogenous proteins in KMS-11 lysate; lysate treated with 1 mM EDC for 30 min at room temperature before immunoprecipitation; anti-SDE2 or anti-ATG5 overnight at 4 °C, Protein A/G agarose, Western blot
[3] = target: Flag-tagged ATG5 (human) (UniProt Q9H1Y0); assay: co-IP; HEK293T; HA-SDE2 variants (full-length and truncations) with Flag-tagged ATG5

The chains behind the UniProt entries cited, without tags or fusion partners. Where a name states a change or a piece, a line headed by the entry shows the natural chain unless it says otherwise.
UniProt Q6IQ49: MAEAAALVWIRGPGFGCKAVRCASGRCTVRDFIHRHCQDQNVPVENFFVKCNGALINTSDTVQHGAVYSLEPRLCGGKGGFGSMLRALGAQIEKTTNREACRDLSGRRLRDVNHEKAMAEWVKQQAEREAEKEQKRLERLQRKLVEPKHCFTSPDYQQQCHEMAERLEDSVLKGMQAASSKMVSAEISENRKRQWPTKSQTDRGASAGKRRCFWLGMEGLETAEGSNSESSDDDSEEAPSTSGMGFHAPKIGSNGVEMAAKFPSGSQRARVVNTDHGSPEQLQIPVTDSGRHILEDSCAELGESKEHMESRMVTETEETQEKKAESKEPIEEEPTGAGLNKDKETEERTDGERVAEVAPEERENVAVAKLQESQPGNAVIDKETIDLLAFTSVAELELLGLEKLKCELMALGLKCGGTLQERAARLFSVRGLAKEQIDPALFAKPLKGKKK
UniProt Q9H1Y0: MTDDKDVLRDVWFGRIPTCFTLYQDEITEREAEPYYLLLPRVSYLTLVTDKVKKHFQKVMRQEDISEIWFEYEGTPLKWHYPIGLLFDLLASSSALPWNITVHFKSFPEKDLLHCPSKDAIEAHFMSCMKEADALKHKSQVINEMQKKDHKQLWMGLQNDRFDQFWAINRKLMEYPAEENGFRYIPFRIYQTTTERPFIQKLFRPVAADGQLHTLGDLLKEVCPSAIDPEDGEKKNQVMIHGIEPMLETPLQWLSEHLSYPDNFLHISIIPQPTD

Myc-tagged ATG5 (from UniProt Q9H1Y0-1 1-275)
binding [1]: binds

SDE2 (endogenous, KMS-11 cells) (from UniProt Q6IQ49)
binding [2]: binds

HA-SDE2 full-length (from UniProt Q6IQ49-1)
binding [3]: binds
